Results taken from paper PMC11443667.
Results are given in words; binding and its absence hold for the method and conditions named. In cells and extracts the contact can be indirect. Some binding calls cover weakened binding; strength is not graded here.

Chains of the proteins cited; added tags and fusions are not shown.
UniProt Q12778: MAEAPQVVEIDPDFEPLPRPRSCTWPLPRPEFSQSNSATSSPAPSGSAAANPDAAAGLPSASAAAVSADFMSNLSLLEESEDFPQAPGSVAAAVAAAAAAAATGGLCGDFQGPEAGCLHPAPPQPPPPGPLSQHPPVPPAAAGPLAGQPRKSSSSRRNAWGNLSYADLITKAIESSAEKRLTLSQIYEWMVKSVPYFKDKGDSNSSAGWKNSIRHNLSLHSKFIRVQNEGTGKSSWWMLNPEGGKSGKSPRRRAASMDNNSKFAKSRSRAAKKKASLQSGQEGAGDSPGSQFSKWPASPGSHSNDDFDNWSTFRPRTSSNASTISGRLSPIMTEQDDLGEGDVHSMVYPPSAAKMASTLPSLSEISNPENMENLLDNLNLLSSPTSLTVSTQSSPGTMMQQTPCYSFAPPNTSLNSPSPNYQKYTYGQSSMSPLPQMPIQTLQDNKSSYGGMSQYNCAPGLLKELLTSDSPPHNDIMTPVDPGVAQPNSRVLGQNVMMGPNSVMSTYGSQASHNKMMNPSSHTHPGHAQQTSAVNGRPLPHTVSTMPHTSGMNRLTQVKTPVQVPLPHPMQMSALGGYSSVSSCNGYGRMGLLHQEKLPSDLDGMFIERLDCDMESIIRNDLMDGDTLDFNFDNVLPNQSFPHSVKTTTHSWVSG

Target: T1, APPL1 (human (endogenous in HUVEC)) (UniProt Q9UKG1)
T1 sequence: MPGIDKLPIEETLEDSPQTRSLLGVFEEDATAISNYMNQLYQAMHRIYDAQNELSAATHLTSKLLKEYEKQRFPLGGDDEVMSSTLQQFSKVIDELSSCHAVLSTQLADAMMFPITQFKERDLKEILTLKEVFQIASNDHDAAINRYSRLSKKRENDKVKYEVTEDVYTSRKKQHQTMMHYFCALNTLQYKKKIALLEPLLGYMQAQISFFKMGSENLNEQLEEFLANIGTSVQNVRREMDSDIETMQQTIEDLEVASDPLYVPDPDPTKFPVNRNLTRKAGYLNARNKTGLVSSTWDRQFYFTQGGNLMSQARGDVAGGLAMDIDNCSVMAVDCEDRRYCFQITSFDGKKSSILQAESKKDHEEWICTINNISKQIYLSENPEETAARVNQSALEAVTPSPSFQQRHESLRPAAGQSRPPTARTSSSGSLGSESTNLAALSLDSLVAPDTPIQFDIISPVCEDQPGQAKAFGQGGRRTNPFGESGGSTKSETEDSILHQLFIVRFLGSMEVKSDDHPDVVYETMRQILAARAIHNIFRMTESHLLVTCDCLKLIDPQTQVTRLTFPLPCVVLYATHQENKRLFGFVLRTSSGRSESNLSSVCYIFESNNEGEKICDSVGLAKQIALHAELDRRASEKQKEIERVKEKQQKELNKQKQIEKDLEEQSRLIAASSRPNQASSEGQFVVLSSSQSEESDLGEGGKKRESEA
Test: co-IP; co-immunoprecipitation of APPL1 and Foxo1, with or without APN treatment; cells, antibodies and direction not told in the main text (Figure S6)

- binding: binds
Substance: Foxo1 (from UniProt Q12778 1-655)
